Source: publication PMC10247859
These are yes or no findings as the source states them, for the method shown. Some results given as binding are weak or reduced against the parent protein; the word gives no strength.

The chains behind the UniProt entries cited, without tags or fusion partners. Where a name states a change or a piece, a line headed by the entry shows the natural chain unless it says otherwise.
UniProt P32908: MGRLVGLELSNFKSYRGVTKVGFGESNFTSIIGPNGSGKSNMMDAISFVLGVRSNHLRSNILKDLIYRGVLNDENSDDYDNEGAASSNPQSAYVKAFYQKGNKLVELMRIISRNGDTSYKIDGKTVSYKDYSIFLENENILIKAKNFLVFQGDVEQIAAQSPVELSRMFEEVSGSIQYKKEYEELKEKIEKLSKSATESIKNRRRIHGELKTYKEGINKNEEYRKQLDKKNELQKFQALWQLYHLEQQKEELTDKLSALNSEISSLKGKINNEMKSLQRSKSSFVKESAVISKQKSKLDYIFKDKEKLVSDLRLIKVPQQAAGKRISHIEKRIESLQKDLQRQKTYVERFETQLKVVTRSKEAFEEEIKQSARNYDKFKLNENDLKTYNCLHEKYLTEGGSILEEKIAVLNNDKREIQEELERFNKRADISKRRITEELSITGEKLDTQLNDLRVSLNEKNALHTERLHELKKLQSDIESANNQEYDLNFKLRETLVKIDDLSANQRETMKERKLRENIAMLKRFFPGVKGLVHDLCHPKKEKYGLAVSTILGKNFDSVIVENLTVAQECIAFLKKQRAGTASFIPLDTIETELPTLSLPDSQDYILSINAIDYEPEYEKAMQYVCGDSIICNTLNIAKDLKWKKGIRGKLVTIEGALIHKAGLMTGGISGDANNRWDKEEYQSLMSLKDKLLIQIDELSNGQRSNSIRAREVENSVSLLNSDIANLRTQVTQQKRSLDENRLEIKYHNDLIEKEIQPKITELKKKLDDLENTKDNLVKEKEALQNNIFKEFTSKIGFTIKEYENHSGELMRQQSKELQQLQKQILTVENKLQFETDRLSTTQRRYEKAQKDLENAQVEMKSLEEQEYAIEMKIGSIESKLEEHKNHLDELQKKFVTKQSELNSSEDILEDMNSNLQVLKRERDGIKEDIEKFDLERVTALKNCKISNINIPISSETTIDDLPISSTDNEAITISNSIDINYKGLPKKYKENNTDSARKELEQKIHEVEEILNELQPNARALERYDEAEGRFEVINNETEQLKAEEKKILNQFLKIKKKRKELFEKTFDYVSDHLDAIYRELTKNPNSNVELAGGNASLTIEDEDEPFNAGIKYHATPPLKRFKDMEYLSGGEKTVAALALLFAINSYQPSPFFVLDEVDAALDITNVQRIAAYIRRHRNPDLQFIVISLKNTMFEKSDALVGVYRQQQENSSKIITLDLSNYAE
UniProt P47037: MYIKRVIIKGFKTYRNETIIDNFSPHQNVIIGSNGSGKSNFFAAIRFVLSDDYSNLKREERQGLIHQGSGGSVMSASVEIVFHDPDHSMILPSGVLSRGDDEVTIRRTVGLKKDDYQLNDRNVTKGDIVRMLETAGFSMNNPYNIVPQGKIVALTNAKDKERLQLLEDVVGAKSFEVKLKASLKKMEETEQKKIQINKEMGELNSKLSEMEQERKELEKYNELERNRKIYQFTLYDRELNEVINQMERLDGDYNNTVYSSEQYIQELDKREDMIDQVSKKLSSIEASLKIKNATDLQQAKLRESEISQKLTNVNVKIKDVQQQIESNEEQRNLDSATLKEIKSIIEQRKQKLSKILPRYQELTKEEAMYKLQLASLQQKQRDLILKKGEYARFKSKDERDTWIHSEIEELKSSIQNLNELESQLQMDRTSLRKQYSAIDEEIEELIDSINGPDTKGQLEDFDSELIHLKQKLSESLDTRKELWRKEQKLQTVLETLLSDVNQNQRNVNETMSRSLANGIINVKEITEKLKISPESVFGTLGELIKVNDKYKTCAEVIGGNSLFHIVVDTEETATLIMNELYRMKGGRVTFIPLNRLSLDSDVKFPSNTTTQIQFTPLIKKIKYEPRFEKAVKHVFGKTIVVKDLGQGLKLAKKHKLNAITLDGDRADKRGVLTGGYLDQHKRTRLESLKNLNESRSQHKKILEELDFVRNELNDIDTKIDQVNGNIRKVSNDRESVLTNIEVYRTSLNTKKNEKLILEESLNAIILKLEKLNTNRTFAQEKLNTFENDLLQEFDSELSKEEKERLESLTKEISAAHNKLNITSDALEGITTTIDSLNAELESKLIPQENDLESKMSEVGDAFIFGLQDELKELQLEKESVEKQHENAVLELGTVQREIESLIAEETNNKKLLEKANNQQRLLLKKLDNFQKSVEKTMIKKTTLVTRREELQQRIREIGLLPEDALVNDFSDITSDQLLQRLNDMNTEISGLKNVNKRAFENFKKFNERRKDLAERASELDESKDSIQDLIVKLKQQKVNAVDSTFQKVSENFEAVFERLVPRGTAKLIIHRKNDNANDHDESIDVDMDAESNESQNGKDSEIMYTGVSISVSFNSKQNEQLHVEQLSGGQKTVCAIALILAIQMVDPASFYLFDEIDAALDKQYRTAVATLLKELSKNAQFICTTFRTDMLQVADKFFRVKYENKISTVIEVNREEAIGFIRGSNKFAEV
UniProt Q12158: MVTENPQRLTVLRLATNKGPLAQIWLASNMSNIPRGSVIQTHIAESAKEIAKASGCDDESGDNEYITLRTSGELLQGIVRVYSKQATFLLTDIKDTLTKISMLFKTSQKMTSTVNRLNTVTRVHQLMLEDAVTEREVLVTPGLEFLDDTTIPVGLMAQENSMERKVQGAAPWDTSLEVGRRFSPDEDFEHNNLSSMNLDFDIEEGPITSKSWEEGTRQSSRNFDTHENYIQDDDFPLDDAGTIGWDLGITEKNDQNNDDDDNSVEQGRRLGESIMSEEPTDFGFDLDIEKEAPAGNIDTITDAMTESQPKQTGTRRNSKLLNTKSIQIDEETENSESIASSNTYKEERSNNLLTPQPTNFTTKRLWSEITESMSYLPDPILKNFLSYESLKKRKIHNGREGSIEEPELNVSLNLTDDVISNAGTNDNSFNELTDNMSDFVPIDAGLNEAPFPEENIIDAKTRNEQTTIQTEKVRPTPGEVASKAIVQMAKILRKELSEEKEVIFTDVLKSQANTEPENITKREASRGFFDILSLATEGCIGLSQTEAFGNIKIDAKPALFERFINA
UniProt P40541: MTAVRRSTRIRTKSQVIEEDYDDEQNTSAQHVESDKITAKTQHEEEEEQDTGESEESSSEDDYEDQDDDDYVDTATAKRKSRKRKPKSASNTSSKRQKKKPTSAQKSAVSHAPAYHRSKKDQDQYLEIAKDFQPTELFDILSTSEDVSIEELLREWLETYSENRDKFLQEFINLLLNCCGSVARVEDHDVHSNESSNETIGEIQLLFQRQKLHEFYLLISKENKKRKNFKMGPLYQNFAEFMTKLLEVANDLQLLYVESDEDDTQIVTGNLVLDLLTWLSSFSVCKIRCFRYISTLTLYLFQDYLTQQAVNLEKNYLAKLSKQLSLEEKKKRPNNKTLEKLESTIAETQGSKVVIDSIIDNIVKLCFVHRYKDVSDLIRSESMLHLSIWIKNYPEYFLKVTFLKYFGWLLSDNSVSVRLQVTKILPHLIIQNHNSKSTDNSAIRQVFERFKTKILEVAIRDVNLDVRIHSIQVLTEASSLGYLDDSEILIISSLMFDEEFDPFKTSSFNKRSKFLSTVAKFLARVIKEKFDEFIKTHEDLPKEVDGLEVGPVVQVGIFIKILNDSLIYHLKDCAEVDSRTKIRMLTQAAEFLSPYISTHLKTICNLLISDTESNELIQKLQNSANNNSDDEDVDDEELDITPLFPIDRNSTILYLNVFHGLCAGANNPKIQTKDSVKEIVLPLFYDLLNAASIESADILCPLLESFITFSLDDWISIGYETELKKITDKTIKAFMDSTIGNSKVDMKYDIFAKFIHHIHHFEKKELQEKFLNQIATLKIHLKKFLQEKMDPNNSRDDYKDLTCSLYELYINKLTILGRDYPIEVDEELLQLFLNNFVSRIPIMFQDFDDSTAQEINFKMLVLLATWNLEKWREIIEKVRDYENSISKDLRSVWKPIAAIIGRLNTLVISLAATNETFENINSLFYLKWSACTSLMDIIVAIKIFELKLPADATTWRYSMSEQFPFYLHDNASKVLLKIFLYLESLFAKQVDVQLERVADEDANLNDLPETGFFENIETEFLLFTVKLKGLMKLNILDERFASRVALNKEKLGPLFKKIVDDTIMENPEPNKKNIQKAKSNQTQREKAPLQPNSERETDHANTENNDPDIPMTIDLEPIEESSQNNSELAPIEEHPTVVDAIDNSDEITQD
UniProt P53840: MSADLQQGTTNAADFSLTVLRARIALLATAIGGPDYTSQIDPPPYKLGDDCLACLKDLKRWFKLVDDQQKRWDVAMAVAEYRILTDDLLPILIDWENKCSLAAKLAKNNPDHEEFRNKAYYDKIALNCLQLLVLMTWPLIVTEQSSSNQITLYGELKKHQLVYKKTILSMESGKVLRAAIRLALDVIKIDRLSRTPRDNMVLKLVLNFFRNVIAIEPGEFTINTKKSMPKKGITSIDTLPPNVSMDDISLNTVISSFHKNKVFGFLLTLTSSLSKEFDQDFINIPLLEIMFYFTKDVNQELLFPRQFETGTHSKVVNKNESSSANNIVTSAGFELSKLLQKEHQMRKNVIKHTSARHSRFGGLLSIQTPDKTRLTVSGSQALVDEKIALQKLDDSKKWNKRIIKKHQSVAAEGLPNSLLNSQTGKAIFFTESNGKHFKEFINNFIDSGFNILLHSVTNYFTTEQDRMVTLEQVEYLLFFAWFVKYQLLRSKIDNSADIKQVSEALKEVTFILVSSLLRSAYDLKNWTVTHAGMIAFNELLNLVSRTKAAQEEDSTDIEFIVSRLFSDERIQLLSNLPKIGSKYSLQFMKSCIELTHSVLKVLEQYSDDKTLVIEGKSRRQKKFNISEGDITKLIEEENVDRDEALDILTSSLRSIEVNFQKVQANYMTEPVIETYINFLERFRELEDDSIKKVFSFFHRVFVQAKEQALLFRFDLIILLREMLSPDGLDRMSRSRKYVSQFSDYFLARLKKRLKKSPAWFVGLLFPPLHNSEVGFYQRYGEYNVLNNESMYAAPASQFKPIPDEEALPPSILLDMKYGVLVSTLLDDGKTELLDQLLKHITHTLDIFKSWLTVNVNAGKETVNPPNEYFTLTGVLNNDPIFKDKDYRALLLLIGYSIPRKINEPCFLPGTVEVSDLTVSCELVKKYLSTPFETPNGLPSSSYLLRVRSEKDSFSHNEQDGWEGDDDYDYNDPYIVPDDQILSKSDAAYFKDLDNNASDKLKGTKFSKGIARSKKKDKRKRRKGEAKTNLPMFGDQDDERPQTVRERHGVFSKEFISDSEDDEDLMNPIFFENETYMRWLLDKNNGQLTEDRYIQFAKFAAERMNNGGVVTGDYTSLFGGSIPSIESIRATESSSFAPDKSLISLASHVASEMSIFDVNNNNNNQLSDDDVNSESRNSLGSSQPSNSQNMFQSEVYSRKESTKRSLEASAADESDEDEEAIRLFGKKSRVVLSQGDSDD

Target: cohesin tetramer complex (Smc1-Smc3-Scc1-Scc3) (S. cerevisiae (budding yeast)) (UniProt P32908+P47037+Q12158+P40541)
Assay: SEC; Superose 6 Increase 3.2/300; 25 mM HEPES-KOH pH 7.6, 100 mM sodium acetate, 0.5 mM TCEP, 2 mM EDTA; proteins at the same molarity incubated together or separately at 30 °C for 5 min; fractions analysed by immunoblotting; both purified

With “Tof1-Csm3 complex (from UniProt P53840 1-1238; Q04659 1-317)” the binding was “binds weakly”.
